Laboratory results from paper PMC9706590.
Results are given in words; binding and its absence hold for the method and conditions named. In cells and extracts the contact can be indirect. Some results given as binding are weak or reduced against the parent protein; the word gives no strength.

Amino acid sequences for entries named in this document (tags omitted).
UniProt P22626: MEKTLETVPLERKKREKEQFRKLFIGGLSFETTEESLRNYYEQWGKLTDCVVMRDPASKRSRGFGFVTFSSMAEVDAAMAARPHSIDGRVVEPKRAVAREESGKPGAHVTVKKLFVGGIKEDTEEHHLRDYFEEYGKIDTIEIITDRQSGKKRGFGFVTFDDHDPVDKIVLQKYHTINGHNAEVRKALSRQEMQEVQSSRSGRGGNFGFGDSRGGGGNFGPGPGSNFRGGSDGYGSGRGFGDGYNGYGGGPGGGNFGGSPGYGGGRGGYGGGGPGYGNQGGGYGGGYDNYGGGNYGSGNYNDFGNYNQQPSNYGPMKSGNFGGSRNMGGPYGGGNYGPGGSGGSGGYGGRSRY

Biological target: heterogeneous nuclear ribonucleoprotein A2B1 (human (endogenous in RPMI8226)) (UniProt P22626)
Experiment: co-IP; endogenous proteins in RPMI8226 myeloma cell lysates; immunoprecipitated with anti-DGCR8 or anti-hnRNPA2B1 antibody, detected by Western blot

B1: DiGeorge syndrome critical region 8 (protein, UniProt Q8WYQ5 1-773)
chain: METDESPSPLPCGPAGEAVMESRARPFQALPREQSPPPPLQTSSGAEVMDVGSGGDGQSELPAEDPFNFYGASLLSKGSFSKGRLLIDPNCSGHSPRTARHAPAVRKFSPDLKLLKDVKISVSFTESCRSKDRKVLYTGAERDVRAECGLLLSPVSGDVHACPFGGSVGDGVGIGGESADKKDEENELDQEKRVEYAVLDELEDFTDNLELDEEGAGGFTAKAIVQRDRVDEEALNFPYEDDFDNDVDALLEEGLCAPKKRRTEEKYGGDSDHPSDGETSVQPMMTKIKTVLKSRGRPPTEPLPDGWIMTFHNSGVPVYLHRESRVVTWSRPYFLGTGSIRKHDPPLSSIPCLHYKKMKDNEEREQSSDLTPSGDVSPVKPLSRSAELEFPLDEPDSMGADPGPPDEKDPLGAEAAPGALGQVKAKVEVCKDESVDLEEFRSYLEKRFDFEQVTVKKFRTWAERRQFNREMKRKQAESERPILPANQKLITLSVQDAPTKKEFVINPNGKSEVCILHEYMQRVLKVRPVYNFFECENPSEPFGASVTIDGVTYGSGTASSKKLAKNKAARATLEILIPDFVKQTSEEKPKDSEELEYFNHISIEDSRVYELTSKAGLLSPYQILHECLKRNHGMGDTSIKFEVVPGKNQKSEYVMACGKHTVRGWCKNKRVGKQLASQKILQLLHPHVKNWGSLLRMYGRESSKMVKQETSDKSVIELQQYAKKNKPNLHILSKLQEEMKRLAEEREETRKKPKMSIVASAQPGGEPLCTVDV
B1 was tested, and the binding was “binds”.
